From the supplement of paper PMC6411743
± gives the standard deviation of the averaged measurements. This is a selection; strong and weak results do not stand in their true shares. Small differences around the control level are noise.

Sequences of proteins named here, by UniProt entry; tags and fusion partners are left off. A change or cut given only in a name is not applied to a line headed by its entry.
UniProt Q8TCD1: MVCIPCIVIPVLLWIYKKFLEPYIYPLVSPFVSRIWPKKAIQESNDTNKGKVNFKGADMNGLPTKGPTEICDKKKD
UniProt Q8WWV3: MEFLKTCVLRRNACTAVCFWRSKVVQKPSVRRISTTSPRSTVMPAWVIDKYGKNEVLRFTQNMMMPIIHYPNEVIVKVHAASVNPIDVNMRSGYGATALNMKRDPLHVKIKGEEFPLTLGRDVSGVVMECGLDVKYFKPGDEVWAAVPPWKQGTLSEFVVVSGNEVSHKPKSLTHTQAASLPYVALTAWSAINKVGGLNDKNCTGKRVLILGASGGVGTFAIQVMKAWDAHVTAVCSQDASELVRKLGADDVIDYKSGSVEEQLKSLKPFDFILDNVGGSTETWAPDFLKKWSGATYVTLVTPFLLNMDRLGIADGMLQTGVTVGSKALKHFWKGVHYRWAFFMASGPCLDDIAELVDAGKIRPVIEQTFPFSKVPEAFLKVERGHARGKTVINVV
UniProt Q8ND76: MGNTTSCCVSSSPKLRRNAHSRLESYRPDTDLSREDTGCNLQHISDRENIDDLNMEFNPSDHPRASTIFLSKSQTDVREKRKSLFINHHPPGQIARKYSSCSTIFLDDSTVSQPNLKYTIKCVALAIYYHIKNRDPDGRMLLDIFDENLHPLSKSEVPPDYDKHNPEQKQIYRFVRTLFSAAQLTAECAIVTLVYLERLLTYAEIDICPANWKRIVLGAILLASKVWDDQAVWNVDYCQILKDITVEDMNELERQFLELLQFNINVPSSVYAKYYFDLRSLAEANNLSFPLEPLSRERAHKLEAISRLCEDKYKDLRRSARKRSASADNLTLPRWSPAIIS
UniProt Q8NC56: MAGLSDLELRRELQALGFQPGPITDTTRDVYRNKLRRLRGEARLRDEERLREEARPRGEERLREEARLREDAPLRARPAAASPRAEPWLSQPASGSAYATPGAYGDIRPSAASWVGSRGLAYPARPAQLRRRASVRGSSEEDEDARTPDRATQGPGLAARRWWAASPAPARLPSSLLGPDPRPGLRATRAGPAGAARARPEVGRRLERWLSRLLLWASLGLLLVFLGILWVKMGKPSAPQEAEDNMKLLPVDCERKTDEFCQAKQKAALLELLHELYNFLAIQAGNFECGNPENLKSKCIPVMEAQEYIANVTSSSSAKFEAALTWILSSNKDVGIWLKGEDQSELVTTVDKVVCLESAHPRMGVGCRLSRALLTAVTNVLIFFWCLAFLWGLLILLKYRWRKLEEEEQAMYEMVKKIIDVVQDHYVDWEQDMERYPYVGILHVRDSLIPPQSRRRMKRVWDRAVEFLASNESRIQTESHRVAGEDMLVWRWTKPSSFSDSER
UniProt Q8TDN6: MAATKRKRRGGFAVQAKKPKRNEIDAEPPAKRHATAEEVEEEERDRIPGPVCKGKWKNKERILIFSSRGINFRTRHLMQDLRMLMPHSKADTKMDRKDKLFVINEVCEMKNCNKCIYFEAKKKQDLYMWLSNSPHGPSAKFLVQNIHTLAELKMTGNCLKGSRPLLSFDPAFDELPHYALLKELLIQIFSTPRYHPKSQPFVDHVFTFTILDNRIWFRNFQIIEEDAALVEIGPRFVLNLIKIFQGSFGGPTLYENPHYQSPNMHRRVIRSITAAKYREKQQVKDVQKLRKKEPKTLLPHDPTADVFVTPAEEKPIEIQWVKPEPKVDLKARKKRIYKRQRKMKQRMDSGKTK
UniProt Q92520: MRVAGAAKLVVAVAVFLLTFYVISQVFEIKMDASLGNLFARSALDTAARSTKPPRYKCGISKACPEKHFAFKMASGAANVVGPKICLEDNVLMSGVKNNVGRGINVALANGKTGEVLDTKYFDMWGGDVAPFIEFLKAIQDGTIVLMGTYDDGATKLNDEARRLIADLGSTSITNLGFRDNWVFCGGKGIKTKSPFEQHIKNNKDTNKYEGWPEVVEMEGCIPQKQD
UniProt Q8TB03: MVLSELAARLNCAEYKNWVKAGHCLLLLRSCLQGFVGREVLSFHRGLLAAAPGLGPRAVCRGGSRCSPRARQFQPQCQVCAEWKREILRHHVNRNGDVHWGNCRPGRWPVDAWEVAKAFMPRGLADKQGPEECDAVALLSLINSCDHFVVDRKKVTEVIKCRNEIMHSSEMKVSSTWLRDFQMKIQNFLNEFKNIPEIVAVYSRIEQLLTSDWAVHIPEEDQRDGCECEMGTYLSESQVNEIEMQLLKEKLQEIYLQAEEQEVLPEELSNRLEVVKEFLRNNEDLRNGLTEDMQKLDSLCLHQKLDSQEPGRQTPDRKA
UniProt Q92854, whole entry: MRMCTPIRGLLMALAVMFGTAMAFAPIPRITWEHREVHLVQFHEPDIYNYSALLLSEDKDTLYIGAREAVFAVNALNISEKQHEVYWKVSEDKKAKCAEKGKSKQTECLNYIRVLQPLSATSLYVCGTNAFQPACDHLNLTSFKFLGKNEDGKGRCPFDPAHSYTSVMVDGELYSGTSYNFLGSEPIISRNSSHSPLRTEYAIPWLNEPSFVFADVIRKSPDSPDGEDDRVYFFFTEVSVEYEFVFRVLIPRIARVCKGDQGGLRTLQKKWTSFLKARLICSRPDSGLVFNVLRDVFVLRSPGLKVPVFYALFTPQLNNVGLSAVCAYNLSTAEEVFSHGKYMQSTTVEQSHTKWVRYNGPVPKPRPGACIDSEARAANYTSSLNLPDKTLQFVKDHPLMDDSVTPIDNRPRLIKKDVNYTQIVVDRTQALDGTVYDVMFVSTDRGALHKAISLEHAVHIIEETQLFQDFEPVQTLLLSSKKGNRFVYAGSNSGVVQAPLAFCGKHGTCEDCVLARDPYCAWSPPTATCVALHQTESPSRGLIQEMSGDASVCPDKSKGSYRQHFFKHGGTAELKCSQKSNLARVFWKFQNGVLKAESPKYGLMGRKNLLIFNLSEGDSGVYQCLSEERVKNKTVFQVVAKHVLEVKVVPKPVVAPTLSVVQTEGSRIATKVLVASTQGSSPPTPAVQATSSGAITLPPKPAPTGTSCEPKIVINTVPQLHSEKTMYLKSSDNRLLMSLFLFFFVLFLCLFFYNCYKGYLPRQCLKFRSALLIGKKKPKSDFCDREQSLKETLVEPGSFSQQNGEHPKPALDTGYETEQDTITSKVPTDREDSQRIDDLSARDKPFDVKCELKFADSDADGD
UniProt Q92785, whole entry: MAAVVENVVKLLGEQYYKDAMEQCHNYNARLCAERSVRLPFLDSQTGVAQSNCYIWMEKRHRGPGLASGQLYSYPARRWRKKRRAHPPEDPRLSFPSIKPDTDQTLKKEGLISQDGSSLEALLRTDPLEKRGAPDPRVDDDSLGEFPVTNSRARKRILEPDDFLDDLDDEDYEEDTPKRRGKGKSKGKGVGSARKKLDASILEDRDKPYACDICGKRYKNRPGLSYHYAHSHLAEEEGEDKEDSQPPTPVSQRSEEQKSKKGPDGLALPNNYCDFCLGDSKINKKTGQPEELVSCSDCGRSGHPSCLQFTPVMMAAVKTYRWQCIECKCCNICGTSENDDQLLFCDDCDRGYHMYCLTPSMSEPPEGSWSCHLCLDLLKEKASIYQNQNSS
UniProt Q92889: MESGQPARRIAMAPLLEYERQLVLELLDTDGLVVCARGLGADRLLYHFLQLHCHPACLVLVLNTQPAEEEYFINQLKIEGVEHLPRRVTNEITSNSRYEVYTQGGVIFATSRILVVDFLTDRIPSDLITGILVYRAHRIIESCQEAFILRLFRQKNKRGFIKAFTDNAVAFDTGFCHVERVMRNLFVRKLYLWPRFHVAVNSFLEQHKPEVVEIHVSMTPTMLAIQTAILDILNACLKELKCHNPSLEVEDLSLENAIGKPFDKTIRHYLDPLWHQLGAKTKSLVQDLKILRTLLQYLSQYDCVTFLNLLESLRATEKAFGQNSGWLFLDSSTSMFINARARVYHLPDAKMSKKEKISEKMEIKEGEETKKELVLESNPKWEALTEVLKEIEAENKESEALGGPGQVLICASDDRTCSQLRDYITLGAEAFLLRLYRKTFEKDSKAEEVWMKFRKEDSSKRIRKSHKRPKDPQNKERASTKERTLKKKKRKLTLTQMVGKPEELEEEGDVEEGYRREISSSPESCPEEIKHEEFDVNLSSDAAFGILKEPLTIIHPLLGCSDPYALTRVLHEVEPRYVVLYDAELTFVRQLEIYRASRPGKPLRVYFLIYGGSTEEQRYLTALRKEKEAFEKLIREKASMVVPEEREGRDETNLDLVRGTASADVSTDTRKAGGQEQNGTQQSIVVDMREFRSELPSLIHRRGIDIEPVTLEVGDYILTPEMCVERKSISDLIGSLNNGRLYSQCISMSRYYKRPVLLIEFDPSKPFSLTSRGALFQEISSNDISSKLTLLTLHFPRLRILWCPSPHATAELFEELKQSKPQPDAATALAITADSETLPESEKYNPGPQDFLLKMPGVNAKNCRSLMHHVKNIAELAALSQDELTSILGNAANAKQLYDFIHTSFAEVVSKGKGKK
UniProt Q8TCT7: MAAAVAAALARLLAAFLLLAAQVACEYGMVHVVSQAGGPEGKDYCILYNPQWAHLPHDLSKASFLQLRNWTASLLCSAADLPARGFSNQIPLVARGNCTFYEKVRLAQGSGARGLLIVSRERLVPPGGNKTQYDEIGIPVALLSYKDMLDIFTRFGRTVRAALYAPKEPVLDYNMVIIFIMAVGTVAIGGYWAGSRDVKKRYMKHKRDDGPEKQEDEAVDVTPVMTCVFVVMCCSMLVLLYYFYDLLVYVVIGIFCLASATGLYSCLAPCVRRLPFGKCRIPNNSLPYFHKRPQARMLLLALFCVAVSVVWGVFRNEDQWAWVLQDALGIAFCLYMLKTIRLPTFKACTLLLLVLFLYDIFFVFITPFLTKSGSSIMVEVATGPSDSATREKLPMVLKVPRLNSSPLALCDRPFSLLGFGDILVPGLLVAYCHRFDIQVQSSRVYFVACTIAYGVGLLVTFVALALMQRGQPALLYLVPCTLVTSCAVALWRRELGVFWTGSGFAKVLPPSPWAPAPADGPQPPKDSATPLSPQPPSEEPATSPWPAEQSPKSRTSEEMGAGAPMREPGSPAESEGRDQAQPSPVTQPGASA
UniProt Q92600, whole entry: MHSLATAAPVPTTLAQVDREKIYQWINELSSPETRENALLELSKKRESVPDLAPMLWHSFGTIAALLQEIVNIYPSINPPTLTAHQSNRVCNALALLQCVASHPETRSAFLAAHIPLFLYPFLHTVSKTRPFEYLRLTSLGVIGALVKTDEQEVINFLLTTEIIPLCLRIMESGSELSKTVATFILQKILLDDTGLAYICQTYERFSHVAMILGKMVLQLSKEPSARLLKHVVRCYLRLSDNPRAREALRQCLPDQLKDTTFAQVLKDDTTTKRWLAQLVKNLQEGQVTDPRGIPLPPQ
UniProt Q8NDX6: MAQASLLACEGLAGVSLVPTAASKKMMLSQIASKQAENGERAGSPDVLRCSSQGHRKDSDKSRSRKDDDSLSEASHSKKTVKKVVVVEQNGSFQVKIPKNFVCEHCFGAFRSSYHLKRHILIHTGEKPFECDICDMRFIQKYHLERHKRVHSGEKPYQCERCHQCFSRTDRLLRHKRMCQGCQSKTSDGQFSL
UniProt Q8NFF5: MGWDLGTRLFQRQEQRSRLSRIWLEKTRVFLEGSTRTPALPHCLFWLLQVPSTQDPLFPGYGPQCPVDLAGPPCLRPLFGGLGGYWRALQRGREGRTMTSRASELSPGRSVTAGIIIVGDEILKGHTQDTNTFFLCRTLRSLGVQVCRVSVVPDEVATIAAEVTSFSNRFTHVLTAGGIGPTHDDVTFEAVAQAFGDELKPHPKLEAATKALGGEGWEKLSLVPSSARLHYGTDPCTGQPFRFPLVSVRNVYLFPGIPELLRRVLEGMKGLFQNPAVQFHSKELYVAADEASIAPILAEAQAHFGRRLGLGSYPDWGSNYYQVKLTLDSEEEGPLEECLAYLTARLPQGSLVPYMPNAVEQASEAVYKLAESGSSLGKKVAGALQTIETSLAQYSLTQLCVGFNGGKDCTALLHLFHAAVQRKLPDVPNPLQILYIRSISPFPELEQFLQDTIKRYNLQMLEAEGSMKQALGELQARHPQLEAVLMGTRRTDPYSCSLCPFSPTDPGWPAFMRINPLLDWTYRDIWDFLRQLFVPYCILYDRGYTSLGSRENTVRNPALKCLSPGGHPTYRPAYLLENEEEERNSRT
UniProt Q8TCG2: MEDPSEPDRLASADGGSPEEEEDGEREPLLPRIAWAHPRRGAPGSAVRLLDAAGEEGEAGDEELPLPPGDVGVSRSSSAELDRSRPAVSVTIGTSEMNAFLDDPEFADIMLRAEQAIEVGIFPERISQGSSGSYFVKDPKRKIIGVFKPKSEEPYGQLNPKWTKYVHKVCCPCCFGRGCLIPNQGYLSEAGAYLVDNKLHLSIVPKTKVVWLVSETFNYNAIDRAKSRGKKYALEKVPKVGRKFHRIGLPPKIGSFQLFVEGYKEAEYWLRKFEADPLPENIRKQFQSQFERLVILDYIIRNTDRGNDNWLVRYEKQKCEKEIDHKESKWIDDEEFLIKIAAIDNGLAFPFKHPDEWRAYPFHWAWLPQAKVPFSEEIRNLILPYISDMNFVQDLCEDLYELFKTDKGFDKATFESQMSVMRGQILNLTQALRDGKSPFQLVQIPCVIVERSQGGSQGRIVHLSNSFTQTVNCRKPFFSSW

Compound: Nc1ncnc2c1ncn2[C@@H]1O[C@H](COP(=O)(O)OP(=O)(O)NP(=O)(O)O)[C@@H](O)[C@H]1O [adenylyl imidodiphosphate]
Test: NP40-soluble protein abundance relative to vehicle (solubility fold change) (ratio); higher = more soluble protein in presence of AMP-PNP
Procedure, shortened: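 Eight concentrations, 0.1 to 10 mM, were tested on Jurkat crude lysate for 10 min at room temperature and then 3 min at 37 °C, in three independent experiments. The lysate was solubilised with 0.8% NP40 and benzonase, ultracentrifuged, and the supernatant TMT-labelled for LC-MS/MS. Each value is the fold change against the detergent-processed vehicle in its own replicate, from vsn-normalised intensities.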

Row | Target | NP40-soluble protein abundance (concentration: 0.1mM) | NP40-soluble protein abundance (concentration: 0.5mM)
1 | C18orf32 (UniProt Q8TCD1) | 0.95692 ± 0.00012 | 0.973 ± 0.01
2 | SCCPDH (UniProt Q8NBX0) | 1.01 ± 0.045 | 0.982 ± 0.085
3 | UniProt Q8WXA9-2 | 0.993 ± 0.031 | 0.982 ± 0.022
4 | GPKOW (UniProt Q92917) | 0.995 ± 0.025 | 1.03 ± 0.058
5 | RTN4IP1 (UniProt Q8WWV3) | 0.993 ± 0.049 | 0.956 ± 0.055
6 | UniProt Q8TDY2 and related entries | 1.02 ± 0.041 | 1.02 ± 0.044
7 | UniProt Q92538 and related entries | 0.987 ± 0.032 | 0.974 ± 0.045
8 | PRCC (UniProt Q92733) | 0.938 ± 0.025 | 0.983 ± 0.052
9 | CCNY (UniProt Q8ND76) | 0.994 ± 0.015 | 0.963 ± 0.021
10 | UniProt Q8NFC6 | 1 ± 0.027 | 0.999 ± 0.043
11 | LEMD2 (UniProt Q8NC56) | 1.052 ± 0.0011 | 1.05 ± 0.038
12 | NSUN6 (UniProt Q8TEA1) | 0.984 ± 0.028 | 0.984 ± 0.019
13 | UniProt Q8WUY1 | 0.989 ± 0.031 | 0.995 ± 0.049
14 | UniProt Q8TDN6 | 1.066 ± 0.0014 | 1.05 ± 0.011
15 | UniProt Q8NDZ4 and related entries | 0.99669 ± 0.00068 | 0.997 ± 0.036
16 | UniProt Q8TEX9 and related entries | 1.07 ± 0.051 | 1.04 ± 0.04
17 | FAM3C (UniProt Q92520) | 0.95 ± 0.018 | 0.9851 ± 0.0094
18 | CXorf38 (UniProt Q8TB03) | 1.006 ± 0.0066 | 0.984 ± 0.024
19 | PDCD6IP (UniProt Q8WUM4) | 0.989 ± 0.02 | 1 ± 0.03
20 | UniProt Q8NHV4 and related entries | 0.982 ± 0.027 | 0.9956 ± 0.0058
21 | DDB2 (UniProt Q92466) | 0.981 ± 0.016 | 0.971 ± 0.072

Reformatted tab-delimited: part of the list above.
Row	Target	NP40-soluble protein abundance (concentration: 0.1mM)	NP40-soluble protein abundance (concentration: 0.5mM)
9	CCNY (UniProt Q8ND76)	0.994 ± 0.015	0.963 ± 0.021
10	UniProt Q8NFC6	1 ± 0.027	0.999 ± 0.043
11	LEMD2 (UniProt Q8NC56)	1.052 ± 0.0011	1.05 ± 0.038
12	NSUN6 (UniProt Q8TEA1)	0.984 ± 0.028	0.984 ± 0.019
13	UniProt Q8WUY1	0.989 ± 0.031	0.995 ± 0.049
14	UniProt Q8TDN6	1.066 ± 0.0014	1.05 ± 0.011
15	UniProt Q8NDZ4 and related entries	0.99669 ± 0.00068	0.997 ± 0.036
16	UniProt Q8TEX9 and related entries	1.07 ± 0.051	1.04 ± 0.04
17	FAM3C (UniProt Q92520)	0.95 ± 0.018	0.9851 ± 0.0094
18	CXorf38 (UniProt Q8TB03)	1.006 ± 0.0066	0.984 ± 0.024
19	PDCD6IP (UniProt Q8WUM4)	0.989 ± 0.02	1 ± 0.03
20	UniProt Q8NHV4 and related entries	0.982 ± 0.027	0.9956 ± 0.0058
21	DDB2 (UniProt Q92466)	0.981 ± 0.016	0.971 ± 0.072

Later entries.

Row | Target | NP40-soluble protein abundance (concentration: 0.1mM) | NP40-soluble protein abundance (concentration: 0.5mM)
22 | SEMA4D (UniProt Q92854) | 0.997 ± 0.035 | 1 ± 0.053
23 | ZNF516 (UniProt Q92618) | 0.999 ± 0.02 | 0.986 ± 0.024
24 | NFATC2IP (UniProt Q8NCF5) | 1.007 ± 0.0093 | 0.992 ± 0.027
25 | MAML1 (UniProt Q92585) | 0.973 ± 0.015 | 0.973 ± 0.045
26 | UniProt Q8TD55 and related entries | 0.9858 ± 0.0052 | 0.987 ± 0.015
27 | SHCBP1 (UniProt Q8NEM2) | 0.989 ± 0.02 | 1 ± 0.015
28 | LSM14A (UniProt Q8ND56) | 0.989 ± 0.014 | 0.994 ± 0.037
29 | UniProt Q8TEB1 and related entries | 1 ± 0.064 | 1.01 ± 0.022
30 | NEK9 (UniProt Q8TD19) | 1.01 ± 0.015 | 0.9952 ± 0.0049
31 | DPF2 (UniProt Q92785) | 0.967 ± 0.039 | 0.951 ± 0.047
32 | UniProt Q8TCB7 and related entries | 0.996 ± 0.018 | 1.006 ± 0.0084
33 | DHX38 (UniProt Q92620) | 0.998 ± 0.047 | 0.969 ± 0.037
34 | UniProt Q8TEQ0 and related entries | 0.995 ± 0.011 | 0.973 ± 0.018
35 | UniProt Q8ND04 and related entries | 1.01 ± 0.017 | 0.987 ± 0.013
36 | MYST3 (UniProt Q92794) | 0.989 ± 0.015 | 1.03 ± 0.027
37 | DDX1 (UniProt Q92499) | 0.99 ± 0.032 | 0.985 ± 0.033
38 | ERCC4 (UniProt Q92889) | 1.006 ± 0.0059 | 1 ± 0.037
39 | TMEM263 (UniProt Q8WUH6) | 0.978 ± 0.02 | 1.01 ± 0.06
40 | UBLCP1 (UniProt Q8WVY7) | 1.01 ± 0.067 | 1.02 ± 0.075
41 | WASF1 (UniProt Q92558) | 0.985 ± 0.019 | 1.01 ± 0.055
42 | GEMIN5 (UniProt Q8TEQ6) | 1.01 ± 0.019 | 0.983 ± 0.061

Row | Target | NP40-soluble protein abundance (concentration: 0.1mM) | NP40-soluble protein abundance (concentration: 0.5mM)
43 | PSPC1 (UniProt Q8WXF1) | 0.996 ± 0.014 | 1.013 ± 0.0066
44 | ELMO1 (UniProt Q92556) | 0.991 ± 0.028 | 0.992 ± 0.035
45 | PPTC7 (UniProt Q8NI37) | 1.011 ± 0.0077 | 1.008 ± 0.00073
46 | UniProt Q8WUK0 and related entries | 0.966 ± 0.031 | 0.9272 ± 0.0034
47 | UniProt Q8WWW0 and related entries | 1 ± 0.016 | 0.996 ± 0.019
48 | UniProt Q8TCT7 and related entries | 1.01 ± 0.017 | 0.997 ± 0.021
49 | MOSPD2 (UniProt Q8NHP6) | 1.01 ± 0.038 | 0.963 ± 0.029
50 | UniProt Q92552 and related entries | 1.02 ± 0.04 | 1 ± 0.042
51 | UniProt Q8WVD3 and related entries | 0.9668 ± 0.002 | 1 ± 0.031
52 | GTF2H4 (UniProt Q92759) | 1.03 ± 0.032 | 1.04 ± 0.035
53 | UniProt Q8NFG4 and related entries | 1.018 ± 0.01 | 1.01 ± 0.012
54 | UniProt Q92600 and related entries | 0.94 ± 0.033 | 0.981 ± 0.068
55 | UniProt Q8NG31 and related entries | 1.02 ± 0.028 | 0.998 ± 0.045
56 | CHMP7 (UniProt Q8WUX9) | 0.948 ± 0.03 | 0.998 ± 0.031
57 | ZNF740 (UniProt Q8NDX6) | 0.978 ± 0.032 | 0.991 ± 0.036
58 | PPIL4 (UniProt Q8WUA2) | 0.984 ± 0.029 | 1 ± 0.024
59 | UniProt Q8NFF5 and related entries | 1.01 ± 0.014 | 0.991 ± 0.024
60 | PI4K2B (UniProt Q8TCG2) | 0.991 ± 0.011 | 0.984 ± 0.02
61 | PLBD2 (UniProt Q8NHP8) | 0.974 ± 0.027 | 1.01 ± 0.046
